Tested on: SARS-CoV-2 (USA-WA1/2020)
Test: microbe, parasite or virus in culture
Format: cell-based
Conditions: Severe acute respiratory syndrome coronavirus 2, Vero, 24 h, read-out: SARS-CoV-2 EC50

Compound O=C(CCCN1CCC2(CC1)C(=O)NCN2c1ccccc1)c1ccc(F)cc1 [Spiperone] has an EC50 of 4.3 µM.

Source: PMC10541190 (The Journal of Clinical Investigation, 2023)
